No constants are given. Whether binding was seen depends on the method and setting. Binding seen in cells or lysates may run through a third protein. Some entries that bind do so weakly or less than the wild type.
Biological target: M3R-YFP (muscarinic acetylcholine receptor M3 with YFP fused C-terminally) (UniProt P20309)
Assay: FRET or BRET; single-cell FRET in HEK293T cells transfected with M3R-YFP, GRK2 and arrestin3-mTurquoise; 30 s stimulation with saturating agonist, with or without prestimulation by ACh; also without GRK2 overexpression or with the kinase-deficient GRK2 K220R (recruitment decreased)

By UniProt entry, the sequences of proteins in these tests, tags left out.
UniProt P32120: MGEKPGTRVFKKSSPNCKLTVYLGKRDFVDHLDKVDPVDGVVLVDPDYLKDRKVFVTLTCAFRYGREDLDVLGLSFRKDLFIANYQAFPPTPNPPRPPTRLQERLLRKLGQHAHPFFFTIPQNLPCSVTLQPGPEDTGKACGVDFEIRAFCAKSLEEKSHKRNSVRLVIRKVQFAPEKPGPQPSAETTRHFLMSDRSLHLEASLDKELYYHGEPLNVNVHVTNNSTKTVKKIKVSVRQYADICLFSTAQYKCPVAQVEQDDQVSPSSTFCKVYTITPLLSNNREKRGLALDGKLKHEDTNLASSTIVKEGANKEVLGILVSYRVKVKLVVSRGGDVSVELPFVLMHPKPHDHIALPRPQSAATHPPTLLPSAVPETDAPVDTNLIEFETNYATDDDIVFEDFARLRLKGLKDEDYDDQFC

arrestin3-mTurquoise (arrestin3 with mTurquoise fused to the C-terminus) (from UniProt P32120 1-420)
binding: binds
